Laboratory results: PubChem BioAssay AID1159584 (Peter MacCallum Cancer Centre, 2016)
Purpose: 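Genes that CDH1-null MCF10A cells selectively depend on to survive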 (primary screen). System: human MCF10A breast epithelial cells, parental and CDH1-null. Reagents: siRNA against human genes. Measurement: 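Cell viability by CellTiter-Glo ATP luminescence, each line scaled to the mean of mock wells across plates, then CDH1-null over parental ratio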. Reading the numbers: CDH1-null / parental viability ratio: higher = CDH1-null cells survive relatively better than parental; CDH1-null viability vs mock: higher = more viable CDH1-null cells; parental viability vs mock: higher = more viable parental cells.
This is an unselected part of about 18,000 reagents tested. Not given: the amount of reagent, the time to read-out.

no.	gene knocked down	CDH1-null / parental viability ratio	CDH1-null viability vs mock (fraction of mock)	parental viability vs mock (fraction of mock)
1	CD83	1.21	0.94	0.78
2	ADRA1D	1.44	0.92	0.64
3	SLC10A2	0.98	0.94	0.96
4	ZNF662	1.2	1.19	0.99
5	GYPE	1.02	0.92	0.9
6	NAP1L2	0.86	0.77	0.9
7	GCNT2	0.92	0.7	0.76
8	S100Z	0.81	0.57	0.7
9	PIP4K2B	0.89	0.78	0.88
10	IREB2	1.01	0.92	0.91
11	EPS8L3	1.25	0.7	0.56
12	PKN3	0.87	0.66	0.76
13	GRIA4	1.45	1.32	0.91
14	TMEM50A	1.53	0.92	0.6
15	ARRDC1	0.93	0.96	1.03
16	IFNB1	0.8	0.74	0.92
17	OR13J1	0.82	0.69	0.84
18	APPL1	1.42	0.68	0.48
19	DIABLO	0.91	0.98	1.08
20	OTOA	1.03	0.7	0.68
21	FAM241B	0.86	0.77	0.9
22	F8	0.78	0.64	0.82
23	MAGEA10	1.21	0.94	0.78
24	FAM120A	0.76	0.58	0.76
25	CALB2	1.03	0.98	0.95
26	PPP2R3B	1.72	0.62	0.36
27	PHF7	1.01	0.95	0.94
28	ZNF423	1.14	0.99	0.87
29	PCDHA1	0.96	0.53	0.55
30	MPDZ	1.05	0.97	0.92
31	LTBR	1.13	0.68	0.6
32	ZNF580	0.81	0.51	0.63
33	CYP1A1	0.88	0.56	0.64
34	VAMP8	1.07	0.86	0.8
35	CHRDL1	1.02	1.06	1.04
36	VWC2	0.68	0.74	1.09
37	DCAF8	1.03	1.02	0.99
38	GRK5	1.18	0.97	0.82
39	H4C3	1.04	0.52	0.5
40	KRTAP5-3	1.04	0.5	0.48
41	P2RX5	1.07	0.91	0.85
42	GFRA2	0.89	0.71	0.8
43	CDK5RAP3	1.25	0.45	0.36
44	ATAD1	0.82	0.46	0.56
45	NCMAP	1.12	0.72	0.64
46	MRPS34	1.02	0.88	0.86
